Reference: the supplement of paper PMC10849652
The list shows a part of the results.

Chains of the proteins cited; added tags and fusions are not shown. Lines headed by an entry give the natural chain unless they say otherwise; changes in a name come on top.
UniProt P52888, whole entry, looked up: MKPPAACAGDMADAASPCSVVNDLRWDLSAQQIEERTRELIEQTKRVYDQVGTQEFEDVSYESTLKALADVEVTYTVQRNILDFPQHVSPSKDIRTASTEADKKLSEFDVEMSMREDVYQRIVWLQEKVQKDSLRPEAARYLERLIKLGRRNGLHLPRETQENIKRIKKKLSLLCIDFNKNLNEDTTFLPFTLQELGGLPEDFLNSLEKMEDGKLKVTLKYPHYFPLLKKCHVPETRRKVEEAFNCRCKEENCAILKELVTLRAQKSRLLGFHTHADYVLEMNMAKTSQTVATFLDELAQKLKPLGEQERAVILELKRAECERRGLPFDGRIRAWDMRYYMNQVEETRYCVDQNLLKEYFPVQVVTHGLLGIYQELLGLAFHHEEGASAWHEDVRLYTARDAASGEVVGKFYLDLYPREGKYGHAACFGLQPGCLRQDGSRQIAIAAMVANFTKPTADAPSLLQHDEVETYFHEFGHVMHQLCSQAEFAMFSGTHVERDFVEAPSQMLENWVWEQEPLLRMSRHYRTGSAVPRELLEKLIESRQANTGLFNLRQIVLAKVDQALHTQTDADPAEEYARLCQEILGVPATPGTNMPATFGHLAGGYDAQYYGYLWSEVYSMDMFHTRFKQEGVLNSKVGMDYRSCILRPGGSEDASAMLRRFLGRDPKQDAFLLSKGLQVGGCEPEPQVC
UniProt Q9Y5J7: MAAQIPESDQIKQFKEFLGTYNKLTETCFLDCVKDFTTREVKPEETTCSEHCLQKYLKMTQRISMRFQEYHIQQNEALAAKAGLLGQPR
UniProt Q66K14, whole entry, looked up: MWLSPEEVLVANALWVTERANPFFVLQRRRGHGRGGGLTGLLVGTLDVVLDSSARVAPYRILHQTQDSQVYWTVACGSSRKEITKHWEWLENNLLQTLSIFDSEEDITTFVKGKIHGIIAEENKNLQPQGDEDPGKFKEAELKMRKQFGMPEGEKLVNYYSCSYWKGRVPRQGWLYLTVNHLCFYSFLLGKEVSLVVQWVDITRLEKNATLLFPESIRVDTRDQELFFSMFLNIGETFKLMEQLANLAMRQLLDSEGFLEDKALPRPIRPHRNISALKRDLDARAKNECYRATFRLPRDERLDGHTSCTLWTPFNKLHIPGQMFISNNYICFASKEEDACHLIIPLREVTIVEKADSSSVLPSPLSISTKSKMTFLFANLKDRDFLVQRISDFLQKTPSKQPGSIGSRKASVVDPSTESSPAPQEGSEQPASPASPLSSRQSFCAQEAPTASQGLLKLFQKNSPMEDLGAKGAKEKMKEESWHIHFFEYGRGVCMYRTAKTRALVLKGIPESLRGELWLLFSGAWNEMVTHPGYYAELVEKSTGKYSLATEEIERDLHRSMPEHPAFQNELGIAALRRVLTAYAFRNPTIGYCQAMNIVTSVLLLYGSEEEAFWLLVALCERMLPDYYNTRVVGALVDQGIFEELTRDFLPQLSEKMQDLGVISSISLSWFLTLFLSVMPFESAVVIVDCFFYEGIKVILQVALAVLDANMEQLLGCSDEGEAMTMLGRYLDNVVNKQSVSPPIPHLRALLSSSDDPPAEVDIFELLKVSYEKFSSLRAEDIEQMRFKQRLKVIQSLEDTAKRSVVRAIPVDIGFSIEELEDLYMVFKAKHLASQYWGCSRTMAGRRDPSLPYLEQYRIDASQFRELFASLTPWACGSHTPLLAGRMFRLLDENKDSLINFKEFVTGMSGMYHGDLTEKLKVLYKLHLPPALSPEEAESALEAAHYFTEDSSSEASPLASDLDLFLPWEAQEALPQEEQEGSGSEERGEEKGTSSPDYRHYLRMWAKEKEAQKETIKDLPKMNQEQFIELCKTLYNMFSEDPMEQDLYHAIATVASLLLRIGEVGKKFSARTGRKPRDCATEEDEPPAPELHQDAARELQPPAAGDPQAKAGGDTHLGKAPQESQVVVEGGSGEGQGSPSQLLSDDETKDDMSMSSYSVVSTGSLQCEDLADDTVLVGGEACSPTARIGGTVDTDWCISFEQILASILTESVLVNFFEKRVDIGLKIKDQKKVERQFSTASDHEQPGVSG
UniProt Q13428: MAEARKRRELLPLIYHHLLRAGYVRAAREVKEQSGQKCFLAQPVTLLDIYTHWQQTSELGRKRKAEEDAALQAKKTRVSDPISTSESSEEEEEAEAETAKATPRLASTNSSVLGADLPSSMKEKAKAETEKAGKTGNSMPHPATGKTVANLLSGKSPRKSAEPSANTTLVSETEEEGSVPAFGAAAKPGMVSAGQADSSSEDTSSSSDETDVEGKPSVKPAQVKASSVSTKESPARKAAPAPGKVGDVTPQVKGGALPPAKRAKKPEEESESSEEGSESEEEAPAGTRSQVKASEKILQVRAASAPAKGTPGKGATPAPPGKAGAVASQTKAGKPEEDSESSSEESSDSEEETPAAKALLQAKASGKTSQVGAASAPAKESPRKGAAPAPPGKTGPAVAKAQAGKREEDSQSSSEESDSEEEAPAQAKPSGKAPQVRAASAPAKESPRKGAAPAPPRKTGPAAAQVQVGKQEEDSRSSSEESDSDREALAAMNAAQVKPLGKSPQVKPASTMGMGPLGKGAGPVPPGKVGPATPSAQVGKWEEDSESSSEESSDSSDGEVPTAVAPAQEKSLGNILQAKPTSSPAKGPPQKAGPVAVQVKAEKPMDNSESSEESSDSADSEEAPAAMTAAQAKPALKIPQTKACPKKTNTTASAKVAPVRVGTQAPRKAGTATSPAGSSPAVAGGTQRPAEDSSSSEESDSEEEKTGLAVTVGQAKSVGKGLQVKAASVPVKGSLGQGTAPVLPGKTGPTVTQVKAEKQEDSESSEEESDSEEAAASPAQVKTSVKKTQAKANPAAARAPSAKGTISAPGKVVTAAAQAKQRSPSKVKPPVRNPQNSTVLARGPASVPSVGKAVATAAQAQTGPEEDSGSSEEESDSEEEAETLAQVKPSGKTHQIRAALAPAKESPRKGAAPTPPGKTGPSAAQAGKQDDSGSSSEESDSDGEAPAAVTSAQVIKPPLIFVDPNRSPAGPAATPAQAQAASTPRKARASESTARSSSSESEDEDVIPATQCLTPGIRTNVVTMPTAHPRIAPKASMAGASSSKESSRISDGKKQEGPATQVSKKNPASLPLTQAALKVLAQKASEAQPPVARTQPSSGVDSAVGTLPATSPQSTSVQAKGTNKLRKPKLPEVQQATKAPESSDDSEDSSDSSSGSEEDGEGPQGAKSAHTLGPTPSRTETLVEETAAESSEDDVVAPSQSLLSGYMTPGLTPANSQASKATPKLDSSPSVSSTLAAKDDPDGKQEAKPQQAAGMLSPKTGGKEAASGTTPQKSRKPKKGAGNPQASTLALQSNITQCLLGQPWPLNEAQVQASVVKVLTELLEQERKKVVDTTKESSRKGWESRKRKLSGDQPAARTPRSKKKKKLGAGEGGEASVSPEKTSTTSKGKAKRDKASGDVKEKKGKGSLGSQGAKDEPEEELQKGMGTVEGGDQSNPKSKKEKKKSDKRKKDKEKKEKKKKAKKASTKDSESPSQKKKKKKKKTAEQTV
UniProt O60220: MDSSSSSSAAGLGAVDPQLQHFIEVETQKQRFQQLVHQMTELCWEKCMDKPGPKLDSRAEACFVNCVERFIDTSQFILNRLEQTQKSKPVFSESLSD
UniProt Q9H5Q4: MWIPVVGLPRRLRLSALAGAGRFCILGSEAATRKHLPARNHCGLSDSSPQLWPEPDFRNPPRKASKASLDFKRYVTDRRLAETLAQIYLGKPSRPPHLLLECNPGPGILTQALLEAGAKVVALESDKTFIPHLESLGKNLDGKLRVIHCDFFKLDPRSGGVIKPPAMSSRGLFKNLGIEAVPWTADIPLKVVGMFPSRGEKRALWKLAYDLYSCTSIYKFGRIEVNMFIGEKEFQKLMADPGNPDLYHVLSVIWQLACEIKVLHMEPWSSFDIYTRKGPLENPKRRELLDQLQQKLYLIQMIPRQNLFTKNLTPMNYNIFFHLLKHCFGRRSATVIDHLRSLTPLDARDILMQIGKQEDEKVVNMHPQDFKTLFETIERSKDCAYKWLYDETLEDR
UniProt Q15814: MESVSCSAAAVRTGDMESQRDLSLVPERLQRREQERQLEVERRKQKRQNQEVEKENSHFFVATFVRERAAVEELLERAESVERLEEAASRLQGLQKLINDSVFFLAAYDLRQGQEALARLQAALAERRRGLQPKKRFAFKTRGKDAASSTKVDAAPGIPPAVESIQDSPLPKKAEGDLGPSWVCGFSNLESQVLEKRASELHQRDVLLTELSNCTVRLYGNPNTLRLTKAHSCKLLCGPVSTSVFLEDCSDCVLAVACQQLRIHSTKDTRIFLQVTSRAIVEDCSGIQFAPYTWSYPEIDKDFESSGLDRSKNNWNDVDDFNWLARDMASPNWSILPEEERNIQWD
UniProt O75347: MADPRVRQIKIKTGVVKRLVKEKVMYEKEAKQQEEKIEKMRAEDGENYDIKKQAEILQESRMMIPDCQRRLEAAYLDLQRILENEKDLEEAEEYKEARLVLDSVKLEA
UniProt Q01085: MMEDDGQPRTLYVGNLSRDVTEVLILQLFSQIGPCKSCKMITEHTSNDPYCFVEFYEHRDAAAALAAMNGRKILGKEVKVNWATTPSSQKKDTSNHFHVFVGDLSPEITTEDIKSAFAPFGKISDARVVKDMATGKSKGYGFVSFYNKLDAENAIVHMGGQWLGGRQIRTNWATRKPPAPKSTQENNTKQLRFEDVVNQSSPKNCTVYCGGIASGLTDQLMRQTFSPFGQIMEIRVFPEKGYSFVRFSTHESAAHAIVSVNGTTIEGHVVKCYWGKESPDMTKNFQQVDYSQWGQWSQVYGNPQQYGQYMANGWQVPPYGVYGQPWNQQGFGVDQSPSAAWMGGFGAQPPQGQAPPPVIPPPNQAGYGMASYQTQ
UniProt P01137, whole entry, looked up: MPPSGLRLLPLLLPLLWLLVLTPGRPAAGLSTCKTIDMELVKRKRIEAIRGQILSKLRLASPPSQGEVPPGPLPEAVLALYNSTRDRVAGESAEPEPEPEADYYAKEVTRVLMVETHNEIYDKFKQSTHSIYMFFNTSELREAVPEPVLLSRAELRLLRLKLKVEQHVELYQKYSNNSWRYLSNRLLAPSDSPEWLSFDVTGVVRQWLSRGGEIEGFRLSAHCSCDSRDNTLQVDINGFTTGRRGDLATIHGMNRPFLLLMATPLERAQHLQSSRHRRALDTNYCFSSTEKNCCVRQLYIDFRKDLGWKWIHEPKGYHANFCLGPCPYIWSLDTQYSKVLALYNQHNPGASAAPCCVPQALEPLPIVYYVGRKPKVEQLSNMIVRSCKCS
UniProt Q15554: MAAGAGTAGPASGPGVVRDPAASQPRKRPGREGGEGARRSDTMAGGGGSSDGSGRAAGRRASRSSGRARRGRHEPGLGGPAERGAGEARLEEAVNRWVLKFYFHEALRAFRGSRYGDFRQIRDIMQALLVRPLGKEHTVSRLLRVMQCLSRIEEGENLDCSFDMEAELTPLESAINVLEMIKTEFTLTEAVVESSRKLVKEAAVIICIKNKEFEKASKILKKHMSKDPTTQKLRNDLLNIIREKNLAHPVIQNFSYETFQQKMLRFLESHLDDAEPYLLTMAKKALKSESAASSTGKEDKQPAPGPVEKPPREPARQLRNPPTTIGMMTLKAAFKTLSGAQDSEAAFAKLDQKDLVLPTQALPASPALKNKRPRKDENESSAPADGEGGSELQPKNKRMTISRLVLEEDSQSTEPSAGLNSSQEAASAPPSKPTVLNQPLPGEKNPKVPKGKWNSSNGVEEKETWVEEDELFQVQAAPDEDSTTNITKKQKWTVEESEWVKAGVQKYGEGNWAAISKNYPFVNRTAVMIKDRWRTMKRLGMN
UniProt Q9Y5L4: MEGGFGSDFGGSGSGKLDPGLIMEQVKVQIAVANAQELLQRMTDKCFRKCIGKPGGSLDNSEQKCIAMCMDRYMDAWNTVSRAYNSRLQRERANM
UniProt P02787, whole entry, looked up: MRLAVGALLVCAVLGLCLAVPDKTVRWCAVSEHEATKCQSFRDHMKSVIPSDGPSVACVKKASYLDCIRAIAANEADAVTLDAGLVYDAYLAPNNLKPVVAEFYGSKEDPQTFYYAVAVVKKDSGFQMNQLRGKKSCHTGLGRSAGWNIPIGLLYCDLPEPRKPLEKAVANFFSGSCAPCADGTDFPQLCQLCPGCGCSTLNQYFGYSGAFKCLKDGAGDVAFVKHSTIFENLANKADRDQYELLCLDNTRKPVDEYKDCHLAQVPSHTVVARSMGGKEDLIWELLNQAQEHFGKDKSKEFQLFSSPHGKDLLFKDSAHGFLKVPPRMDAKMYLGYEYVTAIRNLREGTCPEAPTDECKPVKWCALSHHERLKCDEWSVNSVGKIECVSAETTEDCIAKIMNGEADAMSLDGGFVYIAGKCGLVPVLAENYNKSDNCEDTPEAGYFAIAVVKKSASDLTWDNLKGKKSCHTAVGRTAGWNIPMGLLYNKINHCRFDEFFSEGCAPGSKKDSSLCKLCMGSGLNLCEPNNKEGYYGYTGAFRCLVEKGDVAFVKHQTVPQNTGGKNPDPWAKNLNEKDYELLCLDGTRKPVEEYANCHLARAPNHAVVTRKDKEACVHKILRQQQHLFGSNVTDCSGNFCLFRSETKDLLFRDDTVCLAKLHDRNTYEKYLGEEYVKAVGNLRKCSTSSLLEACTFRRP

Each target was assayed with COc1cc2ncnc(Nc3ccc(F)c(Cl)c3)c2cc1OCCCN1CCOCC1 [gefitinib] (assay: log2 fold change, soluble protein after heating vs DMSO (PISA); higher = thermal stabilisation; K562 cells, 10 uM, 30 min; active = over 0.2 and 3.5 SD of the protein, either way, in both replicates (recomputed)).
Outline: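 Quantification of soluble protein used TMTpro 16plex LC-MS/MS, with channel sums equalised. Samples were the supernatant after 21,000xg for 90 min of pooled aliquots from K562 cells (2×10^6 cells/mL) treated with 10 μM compound for 30 min, heated for 3 min over 48°C-58°C, and extracted in PBS with 0.5% NP-40 at 4°C. Values, from duplicates, describe thermal stability against control samples on a log2 fold-change scale.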

log2 fold change, inactive:
TEX264 (UniProt Q9Y6I9) 0.164
THOP1 (UniProt P52888) -0.015
TGFBRAP1 (UniProt Q8WUH2) 0.047
TIMM9 (UniProt Q9Y5J7) 0.042
TCF3 (UniProt P15923) 0.023
TIMM10 (UniProt P62072) 0.015
TFR2 (UniProt Q9UP52) -0.035
TBL1XR1 (UniProt Q9BZK7) -0.004
TBC1D9B (UniProt Q66K14) -0.072
TKFC (UniProt Q3LXA3) -0.005
TGFBR1 isoform 2 (UniProt P36897) -0.029
TCOF1 isoform 4 (UniProt Q13428) -0.01
TIMM8A (UniProt O60220) -0.015
THUMPD2 (UniProt Q9BTF0) -0.067
TFB2M (UniProt Q9H5Q4) 0.002
TIMM17A (UniProt Q99595) -0.001
TFRC (UniProt P02786) 0.004
THG1L (UniProt Q9NWX6) 0.017
TBCC (UniProt Q15814) -0.009
TES (UniProt Q9UGI8) -0.017
TELO2 (UniProt Q9Y4R8) 0.004
TBCA (UniProt O75347) 0.016
TBC1D4 (UniProt O60343) -0.049
TIAL1 isoform 2 (UniProt Q01085) -0.007
TLE3 isoform 4 (UniProt Q04726) -0.005
TGM2 (UniProt P21980) 0.009
TGFB1 (UniProt P01137) 0.002
TDP2 isoform 2 (UniProt O95551) 0.073
TECR (UniProt Q9NZ01) -0.027
TIMM22 (UniProt Q9Y584) 0.009
THBS4 (UniProt P35443) -0.081
TERF2 (UniProt Q15554) 0.078
TICAM2 isoform 2 (UniProt Q86XR7) -0.015
TIMM13 (UniProt Q9Y5L4) -0.002
TBL1X (UniProt O60907) 0.001
TF (UniProt P02787) -0.153
THOC5 (UniProt Q13769) 0.002
TBC1D15 isoform 3 (UniProt Q8TC07) 0.015
TESC (UniProt Q96BS2) 0.074
TCERG1 (UniProt O14776) 0.073

Pulled one by one from the entries so far:
log2 fold change, inactive:
TERF2 (UniProt Q15554) 0.078
TICAM2 isoform 2 (UniProt Q86XR7) -0.015
